Data as given in PubChem BioAssay AID720505 (Drosophila RNAi Screening Center, 2013).
The deposit covers about 20,000 reagents; shown is an unselected part of those that have a named target and a result. In the full data, about 2,100 (10%) got an active call. 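Raw plate signals without normalisation; calls rest on control-based scores that were not deposited; replicate 2 separates called from uncalled poorly.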 Entries without a mark were called inactive. A plus sign joins genes that one reagent is predicted to hit. The record does not give: the amount of reagent, the time to read-out.

Assay: 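Genes needed for store-operated calcium entry in fly cells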 (primary screen)
Cell system: Drosophila S2R+ cells
Reagents: long dsRNA against Drosophila genes
Treatment: thapsigargin (2 µM) in calcium-free buffer to empty internal stores, then 2 mM calcium added back
Detection: 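Stores emptied by 2 µM thapsigargin without calcium, then 2 mM calcium re-added; fluo-4 fluorescence followed by FLIPR in 384-well plates, per-well averaged endpoint, raw; two screen passes, some wells retested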
Reading the numbers: calcium signal and retest calcium signal: higher = more calcium entry after store depletion
Rule for the call: 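About 1500 genes called as lowering calcium entry, by varying amounts, judged against per-plate control wells with STIM1 as positive and Rho1 as negative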
Calls: active = called as lowering calcium entry; inactive = not called

target	DRSC id	calcium signal, replicate 1	calcium signal, replicate 2	retest calcium signal, replicate 1	retest calcium signal, replicate 2
CG9815 (GeneID 37710)	DRSC04567	97.1	152		
CG10934 (GeneID 37013)	DRSC06017	156	106		
Rh50 (GeneID 38589)	DRSC08692	70.8 (active)	95.2		
stac (GeneID 43002)	DRSC14392	141	135		
stac (GeneID 43002)	DRSC22197	109	204		
CG14671 (GeneID 40671)	DRSC12257	143	222		
Rpt3R (GeneID 41190)	DRSC16501	132	94.6		
CG10311 (GeneID 41984)	DRSC14228	133	188		
Bulli (GeneID 38734)	DRSC10974	97.5	69		
stops (GeneID 43683)	DRSC15095	143	143		
stops (GeneID 43683)	DRSC15096	162	171		
stops (GeneID 43683)	DRSC15097	146	143		
scpr-B (GeneID 41357)	DRSC15200	78.7 (active)	127		
RhoGDI (GeneID 40179)	DRSC10919	99.4	124		
CG7222 (GeneID 36138)	DRSC07019	189	74.8		
ringer (GeneID 39813)	DRSC10455	84.2	105		
ms(3)76Cc (GeneID 40142)	DRSC11071	110	136		
ms(3)76Cc (GeneID 40142)	DRSC21630	117	126		
CG34196 (GeneID 5740437)	DRSC05704	104	110		
mTerf5 (GeneID 42182)	DRSC16209	156	195		
Br140 (GeneID 35648)	DRSC06755	62.5 (active)	144		
CG13713 (GeneID 59233)	DRSC08322	78.3	50.2		
Rrp42 (GeneID 36766)	DRSC07161	101	163		
CG33791 + CG18170	DRSC08523	107	88.8		
CG33791 + CG18170	DRSC08601	106	135		
AOX4 (GeneID 41897)	DRSC15337	117	114		
CG7215 + Prx5	DRSC16214	204	144		
CG7215 + Prx5	DRSC16215	111	301		
Cib2 (GeneID 37363)	DRSC04535	181	99.3		
CG11593 (GeneID 38477)	DRSC08206	88	86.4		
Mer (GeneID 32979)	DRSC20259	156	155		
CG10348 (GeneID 35132)	DRSC02043	76.6 (active)	94		
CG10348 (GeneID 35132)	DRSC21908	68.2	184		
CG10348 (GeneID 35132)	DRSC23233	118	167		
Gale (GeneID 38076)	DRSC08234	51.4 (active)	106		
S-Lap8 (GeneID 36844)	DRSC06870	128	122	103	115
S-Lap8 (GeneID 36844)	DRSC21372	130	109		
CG10208 (GeneID 42814)	DRSC14211	96	103		
CG3156 (GeneID 30994)	DRSC18503	110	135		
CG30287 (GeneID 246530)	DRSC03875	110	8322		
CG9806 (GeneID 31994)	DRSC18444	94.3	123		
Rx (GeneID 37367)	DRSC03837	79.1	7138		
Rx (GeneID 37367)	DRSC04652	155	109		
CG15412 (GeneID 33553)	DRSC00427	110	88.3		
Eig71Ei (GeneID 39710)	DRSC11156	89.2	147		
Rel (GeneID 41087)	DRSC16819	102	166		
Pex11c (GeneID 42751)	DRSC14677	212	112		
Sgf29 (GeneID 37429)	DRSC04076	148	98.1		
CG3355 (GeneID 33667)	DRSC00598	102	127		
CG15719 (GeneID 32249)	DRSC19685	146	85		
CG5188 (GeneID 34428)	DRSC02826	180	173		
fdl (GeneID 250735)	DRSC07279	108	256		
Dip-C (GeneID 47769)	DRSC15855	109	142		
caz (GeneID 32587)	DRSC20317	56.8 (active)	166	157	7160
caz (GeneID 32587)	DRSC22594	126	198		
caz (GeneID 32587)	DRSC23280	142	157		
CG13398 (GeneID 34169)	DRSC02268	165	145		
Claspin (GeneID 326205)	DRSC08308	121	105		
CG6659 (GeneID 32854)	DRSC20003	200	174		
ATPsynbeta (GeneID 43829)	DRSC17194	63.9 (active)	93.2		
CG42586 + CG31775	DRSC01413	164	124	117	112
CG9512 (GeneID 32419)	DRSC20189	123	109		
CG15368 (GeneID 31861)	DRSC18040	122	124		
CG15368 (GeneID 31861)	DRSC23291	186	157		
lgs (GeneID 43791)	DRSC17152	110	157		
CG30427 (GeneID 37986)	DRSC04014	71.4	86.8		
CG30427 (GeneID 37986)	DRSC04311	73.6	84.1		
CG30427 (GeneID 37986)	DRSC04323	147	198		
Uxs (GeneID 38911)	DRSC10941	106	94.5		
Odc1 (GeneID 35766)	DRSC07482	183	158		
Sh (GeneID 32780)	DRSC19214	63.8 (active)	52.1		
Sh (GeneID 32780)	DRSC19220	89.3	118	81.9	105
Sh (GeneID 32780)	DRSC19785	95.1	113		
Sh (GeneID 32780)	DRSC20055	97.6	161		
Sh (GeneID 32780)	DRSC22567	80.8	137		
ph-p (GeneID 31181)	DRSC18820	118	123		
alphaTub67C (GeneID 39130)	DRSC11321	53.6 (active)	86.4		
ND-B22 (GeneID 34747)	DRSC03193	111	95.7		
CG31111 (GeneID 318595)	DRSC14649	135	124		
CG9663 (GeneID 33541)	DRSC00724	128	221		
Tssk (GeneID 42233)	DRSC14784	162	147		
CG13066 (GeneID 50270)	DRSC09949	122	160		
CG14641 (GeneID 40529)	DRSC12227	141	88.3		

Single entries from the entries so far.
For “calcium signal, replicate 1”, CG10348 (GeneID 35132) [DRSC02043] is entered as 76.6 (active)
Value for Cib2 (GeneID 37363) [DRSC04535] under “calcium signal, replicate 1”: 181
CG10208 (GeneID 42814) [DRSC14211], calcium signal, replicate 2: 103
ATPsynbeta (GeneID 43829) [DRSC17194], calcium signal, replicate 1: 63.9 (active)
caz (GeneID 32587) [DRSC22594], calcium signal, replicate 2: 198
Under “calcium signal, replicate 2”, Gale (GeneID 38076) [DRSC08234] shows 106 (active)
